At least one peptide structure holds a part that was inferred or is arguable (an end, a ring closure or a residue). Ends that are not written are not given here.
Tests used:
[1] = test system: αSMA in mouse lung fibroblasts (Mlg2009 cells); assay: Western blot for αSMA in TGF-β1-treated mouse lung fibroblasts (Mlg2009 cells); format: cell-based; details: TGF-β1 10 ng/ml, 24 hours
[2] = test system: bleomycin treated lungs; assay: Histochemical (H and E, Trichrome) staining of bleomycin treated lungs; format: in vivo, mouse; details: bleomycin plus QM107
[3] = test system: mouse lung fibroblasts; assay: qPCR of ECM genes in TGF-β1-stimulated mouse lung fibroblasts (SDC2-pep); format: cell-based; details: SDC2-pep 5 μM
[4] = test system: mouse model of BLM-induced fibrosis; assay: Bleomycin model of pulmonary fibrosis with SDC2-pep administration from day 10; format: in vivo; details: for BAL total cell counts: after BLM
[5] = test system: PCLS from IPF lungs; assay: Profibrotic gene expression (qPCR) in precision cut lung slices from IPF lungs; format: cell-based, human; details: SDC2-pep 5 μM, 72 h
[6] = test system: CD148 in endothelial cells; details: cited from earlier work
[7] = test system: PCLS from control lungs; assay: Gene expression (qPCR) in control-lung PCLS stimulated with profibrotic mix; format: cell-based, human; details: SDC2-pep 5 μM, 72 h
[8] = test system: precision cut lung slices from IPF patients; assay: Immuno-staining for collagen I in precision cut lung slices from IPF patients; format: cell-based, human; details: QM107 0.5 μM, 72 hours
[9] = test system: Bleomycin induced lung fibrosis; assay: Bleomycin lung fibrosis model, topical (intranasal) QM107, hydroxyproline content; format: in vivo, mouse
[10] = test system: IPF-derived lung fibroblasts; assay: FasL-induced cell death (MTT cell viability); format: cell-based, human; details: FasL 200 ng/ml 24 h, SDC2-pep 5 μM
Experimental: FIG. 1. […] (A) CD148 protein expression levels were determined in lung homogenates from control (n=5) and IPF (n=5) patients. (Graphic) Densitometry (by ImageJ software). (B) Lung specimens from control (n=9) and IPF (n=10) patients were homogenized and subjected to total RNA isolation. Ptprj (CD148) mRNA levels were assessed using qPCR. (C) Single cell suspensions of control (n=6) and IPF (n=7) were enriched for fibroblasts. mRNA expression of CD148 in fibroblast-enriched cell populations were assessed using qPCR. (D) Representative fluorescence microscopy images of CD148 (Cy3, red), Vimentin (GFP, green) and DAPI (blue) in control (n=4) and IPF lung tissue (n=5). Scale bar=100 μm. […] CD148 fluorescence intensity was quantified by ImageJ. […] (E) CD148 protein levels were measured by western blot (n=3). (F) mRNA levels of fibronectin (Fn) and Collagen 1a1 (Col1a1) were measured using qPCR (n=5). […] After treatment, cell viability was determined using the MTT assay (n=5). […] Clusters labeled as fibroblast and myofibroblast were extracted from our previously published scRNA-seq data set and analysed using R-program. […] P values were calculated by Mann-Whitney unpaired test. (L) mRNA expression of CD148 in sorted AT1 and AT2 cells were assessed using qPCR. […] After treatment, cell viability was assessed with the MTT assay (n=4). […]
FIG. 6. […] (B) mRNA levels of Fn and Col1a1 were measured by qPCR (n=5). […]

[11] = test system: mouse lung fibroblasts (Mlg2009 cells); assay: qRTPCR of pro-fibrotic genes in TGF-β1-treated mouse lung fibroblasts (Mlg2009 cells); format: cell-based; details: TGF-β1 10 ng/ml

Sequence: PAEEDTNVYTEKHSDSLF [QM107]
- TGF-β1 induced αSMA production [1]: inhibited TGF-β1 induced αSMA production in mouse lung fibroblasts in a dose-dependent manner
- Collagen staining [2]: greatly decreased
- TGF-β1-induced Col1a1 gene expression ([3]; Ptprj−/− fibroblasts): partially inhibited
- TGF-β1-induced Fn gene expression ([3]; Ptprj−/− fibroblasts): partially inhibited
- TGF-β1-induced Col1a1 gene expression ([3]; wild type fibroblasts): inhibited
- TGF-β1-induced Fn gene expression ([3]; wild type fibroblasts): inhibited
- pulmonary fibrosis (antifibrotic effect) ([4]; Ptprj^fl/fl Col1a2^Cre-ER(T)+/0 (fibroblast CD148-deficient) mice, BLM, SDC2-pep 0.5 mg/kg): significantly reduced but not absent
- BAL total cell counts ([4]; Ptprj^fl/fl Col1a2^Cre-ER(T)+/0 mice): not in Ptprj^fl/fl Col1a2^Cre-ER(T)+/0 mice
- pulmonary fibrosis ([4]; control (Col1a2^Cre-ER(T)+/0) mice, BLM 0.75 mg/kg, SDC2-pep 0.5 mg/kg): significantly inhibited pulmonary fibrosis
- Col1A1 gene expression in harvested lungs ([4]; control mice, BLM, qPCR): inhibited
- Ctgf gene expression in harvested lungs ([4]; control mice, BLM, qPCR): inhibited
- Fn gene expression in harvested lungs ([4]; control mice, BLM, qPCR): inhibited
- BAL total cell counts ([4]; control mice): trend towards decreased BAL total cell counts
- Ptprj gene expression ([5]; PCLS): did not affect
- Acta2 gene expression ([5]; scr-transfected PCLS): significantly decreased
- Col1a1 gene expression ([5]; scr-transfected PCLS): significantly decreased
- Fn gene expression ([5]; scr-transfected PCLS): significantly decreased
- decrease of profibrotic gene expression (Col1a1, Fn, Acta2) ([5]; shCD148-transfected PCLS): this effect was reduced
- binding and activation of CD148 [6]: responsible for binding and activation of CD148
- ECM expression ([7]; CD148 deficient PCLS): partially inhibited
- Acta2 expression ([7]; control PCLS): attenuated
- Col1a1 expression ([7]; control PCLS): attenuated
- Fn expression ([7]; control PCLS): attenuated
- Ptprj expression ([7]; control PCLS): not Ptprj expression
- collagen deposition [8]: notably reduced
- Bleomycin induced lung fibrosis ([9]; WT mice, bleomycin 0.75 mg/kg, QM107 0.5 mg/kg intranasal, 4 times, day 24): attenuates
- collagen deposition ([9]; topical application, bleomycin lung fibrosis model, hydroxyproline): reduction in collagen deposition
- FasL-induced cell death ([10]; CD148-deficient cells): to a lesser extent
- FasL-induced cell death ([10]; IPF fibroblasts): significantly enhanced
- TGF-β1 stimulated matrix production (collagen1a1 and fibronectin) [11]: significantly inhibited
